Measurements: publication PMC12501420, “Small DUF1127 proteins regulate bacterial phosphate metabolism through protein–protein interactions with the sensor kinase PhoR” (microLife, 2025)
No constants are given. Whether binding was seen depends on the method and setting. Some results given as binding are weak or reduced against the parent protein; the word gives no strength. Sequences can lack the tags named with a protein.

Target: T1, PhoR from E. coli, bacterial two-hybrid fusion (E. coli) (UniProt P08400)
T1 sequence: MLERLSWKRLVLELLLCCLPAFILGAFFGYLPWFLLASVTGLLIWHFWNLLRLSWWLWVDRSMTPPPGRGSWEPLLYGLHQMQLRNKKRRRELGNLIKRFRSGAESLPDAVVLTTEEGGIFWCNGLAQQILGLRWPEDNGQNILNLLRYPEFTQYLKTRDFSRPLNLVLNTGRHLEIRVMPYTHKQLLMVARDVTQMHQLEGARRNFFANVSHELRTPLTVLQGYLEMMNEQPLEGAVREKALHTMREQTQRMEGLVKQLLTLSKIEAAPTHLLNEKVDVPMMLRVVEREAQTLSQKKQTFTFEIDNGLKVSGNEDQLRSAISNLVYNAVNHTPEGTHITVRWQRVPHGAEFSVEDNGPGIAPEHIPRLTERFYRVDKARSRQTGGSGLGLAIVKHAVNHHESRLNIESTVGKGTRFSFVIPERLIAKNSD
Experiment: two-hybrid; bacterial two-hybrid: T25 and T18 domains of B. pertussis CyaA fused N- or C-terminally; E. coli reporter strain DHM1 spotted on agar plates with X-Gal, blue colonies

binding: binds
B1: YjiS from E. coli, bacterial two-hybrid fusion (protein, UniProt P39390 1-54)
chain: MEFHENRAKAPFIGLVQLWQAVRRWRRQMQTRRVLQQMSDERLKDIGLRREDVE
